The target in the assay is mouse BCMA-MFC (BCMA with C-terminal mFc tag) (mouse). The assay can be described thus: SPR, 25 C.

Results on 3 molecules are retold here after US20220306758A1.

These are yes or no findings as the source states them, for the method shown. Some binding calls cover weakened binding; strength is not graded here.

B1: mAb16732 (REGN4514) (antibody, V domains shown)
VH: EVQLVESGGGLVQPGRSLRLSCAASGFTFDDYAMHWVRQAPGKGLEWVSGISWNSGNMGYADSVKGRFTISRDNAKNSLFLQMHSLRAEDTAFYYCAKVRLTAFDFWGQGTLVTVSS
VL: DIQMTQSPSSLSASVGDRVTITCRTSQSIGNYLNWFQQKPGKAPKLLIYTASSLQNGVPSRFTGSGSGTDFTLTISSLQPEDFVIYYCQQSFSTPYTFGQGTKLEIK
Consider B1, for which the binding entry is given as “binds”.

B2: mAb16747 (REGN4515) (antibody, V domains shown)
VH: QVQLVESGGGLVKPGGSLRLSCAASGFTFSDYYISWIRQAPGKGLEWVSYISSSGSSIKYADSVKGRFTISRDNAKNSLYLQMNSLRAEDTAVYYCAREGGNYGMDVWGQGTTVTVSS
VL: DIQMTQSPSSVSASVGDRVTITCRASQGINNWLVWYQQKPGKAPKLLIYAATSLQSGVPSRFSGSGSGTDFTLTISSLQPEDFATYYCQQANSFPPTFGQGTKLEIK
Turning to B2, the binding entry was “binds”.

B3: mAb16711 (antibody, V domains shown)
VH: QVQLVESGGGVVQPGRSLRLSCAASGFTFSTYGIHWVRQAPGKGLEWVAVILHDGSSNYYAESVKGRFIISRDNSKNTLYLQMNSLRAEDTALYYCTKRYSEAAGPNWFDPWGQGTLVTVSS
VL: DIQMTQSPSSVSASVGDRVTITCRASRGISSWLAWYQQKPGKAPKLLIHAASSLQSGVPSRFSGSGSGTDFTLTISSLQPEDFATYYCQQAISFPFTFGPGTKVDIK
Turning to B3, the binding entry was “binds”.
